Source: patent publication US9150634B2, “Epitopes of the human PDGF receptor able to bind human auto-antibodies, antibodies and uses thereof” (priority 2010, dated 2015)

Tested on: PDGFR alpha
Assay: PDGFR alpha peptide library screening (PEPSCAN-based ELISA)
Assay type: binding, human
Details: CLIPS peptide library of first three extracellular domains

“PDGF-BB: human PDGF-BB, natural binding partner (physiological ligand) of PDGFR alpha [reference compound]” was tested, and the “PDGFR alpha epitope, aa residues identified through library screening (ls)” value was 92-106 and 169-183.

B1: Vk13B8: recombinant human monoclonal IgG1, VH PAM (SEQ ID No. 3) paired with Vk13B8 VL (SEQ ID No. 4); non-agonistic anti-PDGFR alpha (antibody, listed as Homo sapiens, V domains shown)
VH: GLVKPLETLSLTCSVSGGSVSDGSYFWNWIRQPPGKGLEWIGYAYSRGTTNYSPSLKGRITISVDKSKNQISLKLTSVTPADTAVYYCARDSFEIWGQGTMVTV
VL: DIQMTQSPSSLSASVGDRVTITCRASQGISNYLAWFQQKPGKAPKSLIYAASSLQSGVPSKFSGSGSGTDFTLTISSLQPEDFATYYCQQYNSFPYTFGQGTKLEIK
For B1, the “PDGFR alpha epitope, aa residues identified through library screening (ls)” value was 36-50.

Several values for one entry are separate records, joined by “and”; a condition that tells them apart may be missing. Identical values can stand only once.
